This is an account of results in PubChem BioAssay AID328 (DTP/NCI, 2004).

The list is a part of this screen's results and no random one: it gathers tests that were run many times, whatever their T/C, doses with no T/C, and many T/C values between a quarter and a half above the control. Other doses and runs of a compound stand elsewhere. T/C is the treated group as % of the vehicle group. Some doses have a count of surviving animals in place of a T/C: the source files T/C as zero there, which appears to mark a toxic dose or a test without result, not a measured value. Some survivor counts are full or nearly so, which does not show that the dose was tolerated: survival well below the control is almost never listed, so the zero probably covers shortened survival too. Survivors were counted at the toxicity check, usually on the fifth day, unless a day is given; later deaths do not show. Schedule codes are those of the source, read here as Q, the interval in days (D) or hours (H), X, the number of doses. Some entries hold several experiments; the values are given in rising order. For survival time, this PubChem deposit counts one and a half times the control or more as active, and values a quarter to a half above the control carry no call in these data; other NCI protocols may use other cut-offs. Signs of the kind (2×) count equal records among those shown. Some T/C values are followed by the survivors on the day toxicity was checked, most often the fifth; without a count, all were alive then.

In this assay the test system is BDF1 mice, P388 leukemia ip, median survival T/C. Nature of the assay: NCI In Vivo Anticancer Drug Screen. Data for tumor model P388 Leukemia (intraperitoneal) in B6D2F1 (BDF1) mice. The conditions noted are these: T/C endpoint: median survival time, higher T/C = longer survival. In a few lines:
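Vehicle-dosed animals serve as the reference; survival of compound-dosed, tumour-implanted mice is divided by it.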

Where [1] appears, read: dose: 3.12 mg/kg/injection, schedule: Q01DX009 (ip), vehicle: saline.
[2] abbreviates: dose: 6.25 mg/kg/injection, schedule: Q01DX009 (ip), vehicle: saline.
The mark [3] stands for this setting: dose: 25.0 mg/kg/injection, schedule: Q01DX009 (ip), vehicle: saline.
The mark [4] stands for this setting: dose: 50.0 mg/kg/injection, schedule: Q04DX003 (ip), vehicle: saline.
Where [5] appears, read: dose: 400.0 mg/kg/injection, schedule: Q04DX003 (ip), vehicle: saline.
[6] abbreviates: dose: 50.0 mg/kg/injection, schedule: Q01DX009 (ip), vehicle: saline.
Where [7] appears, read: dose: 100.0 mg/kg/injection, schedule: Q04DX003 (ip), vehicle: saline.
The mark [8] stands for this setting: dose: 100.0 mg/kg/injection, schedule: Q04DX003 (ip), vehicle: saline with Tween-80.
Setting [9] is: dose: 200.0 mg/kg/injection, schedule: Q04DX003 (ip), vehicle: saline with Tween-80.
Where [10] appears, read: dose: 400.0 mg/kg/injection, schedule: Q04DX003 (ip), vehicle: saline with Tween-80.
Where [11] appears, read: dose: 400.0 mg/kg/injection, schedule: Q01DX009 (ip), vehicle: saline with Tween-80.
Setting [12] is: dose: 100.0 mg/kg/injection, schedule: Q04DX003 (ip), vehicle: Klucel (hydroxypropylcellulose) (HPC).
The mark [13] stands for this setting: dose: 100.0 mg/kg/injection, schedule: Q01DX009 (ip), vehicle: saline with Tween-80.

`ClCCCN1CCCCC1CCl` (stereo not drawn): the T/C runs as follows: under setting [1], 135 [5 of 6 alive] and 137 % of control; under setting [2], 137 % of control; (dose: 6.25 mg/kg/injection, schedule: Q04DX003 (ip), vehicle: saline) 139 % of control (2×); (dose: 12.5 mg/kg/injection, schedule: Q04DX003 (ip), vehicle: saline) 130 % of control. The survivor count is 5 of 6 and 6 of 6 under setting [3]; 6 of 6 under setting [4].

With `O=C1c2c(Cl)c(Cl)c(Cl)c(Cl)c2C(=O)N1c1ccccc1-c1ccccc1`, for the setting “dose: 87.5 mg/kg/injection, schedule: Q01DX009 (ip), vehicle: saline with Tween-80”, the survivor count is listed as 5 of 7.

With `Nc1ncnc2nc(-c3ccc(Br)cc3)[nH]c12`, the survivor count (dose: 400.0 mg/kg/injection, schedule: Q01DX001 (ip), vehicle: saline with Tween-80) is 3 of 6.

As for `NN1CCCC1`, the survivor count is given as 2 of 6 (dose: 200.0 mg/kg/injection, schedule: Q01DX009 (ip), vehicle: saline); 0 of 6 (dose: 400.0 mg/kg/injection, schedule: Q01DX009 (ip), vehicle: saline); 3 of 6 under setting [5].

In the case of `CC(=O)OC1CC2(O)C(CCC3(C)C(c4ccc(=O)oc4)CCC32O)C2(C)C1=CC(O)C1OC12` (stereo not drawn), the survivor count is, setting by setting: (dose: 1.0 mg/kg/injection, schedule: Q01DX010 (ip), vehicle: carboxymethylcellulose (CMC)) 2 of 6; (dose: 2.0 mg/kg/injection, schedule: Q01DX010 (ip), vehicle: carboxymethylcellulose (CMC)) 0 of 6.

As for `CCCCCCCCCCCCCC[S+](C)C`, the survivor count under setting [6] is given as 0 of 6 and the survivor count under setting [7] is 0 of 6.

For the molecule `CCC1(c2ccccc2)NC(=O)N(C)C1=O` (stereo not drawn), the survivor count (dose: 400.0 mg/kg/injection, schedule: Q01DX009 (ip), vehicle: Klucel (hydroxypropylcellulose) (HPC)) is on record as 0 of 6.

For `CCCCC(=O)N(c1ccc(Nc2c3ccccc3nc3cc([N+](=O)[O-])ccc23)cc1)S(C)(=O)=O`, the T/C by setting is: (dose: 1.46 mg/kg/injection, schedule: Q04DX003 (ip), vehicle: saline with Tween-80) 145 % of control; (dose: 22.0 mg/kg/injection, schedule: Q04DX003 (ip), vehicle: saline with Tween-80) 129 % of control. Further, the survivor count under setting [8] is recorded as 6 of 6, the survivor count under setting [9] is on record as 6 of 6 and the survivor count under setting [10] is 5 of 6.

Regarding `Cc1ccc2c[n+]3cc4ccccc4cc3cc2c1`, the T/C (dose: 2.0 mg/kg/injection, schedule: Q01DX009 (ip), vehicle: saline) is 135 % of control; the T/C under setting [1] is 136 and 140 % of control; the T/C under setting [2] was 127 % of control. Besides, the survivor count is, setting by setting: (dose: 9.2 mg/kg/injection, schedule: Q01DX009 (ip), vehicle: saline) 0 of 6; (dose: 14.0 mg/kg/injection, schedule: Q01DX009 (ip), vehicle: saline) 0 of 6; (dose: 18.0 mg/kg/injection, schedule: Q04DX003 (ip), vehicle: saline) 5 of 6; (dose: 21.0 mg/kg/injection, schedule: Q01DX009 (ip), vehicle: saline) 0 of 6.

In the case of `O=C(Nc1cccc(C(=O)Nc2ccc(C3=NCCN3)cc2)c1)c1ccc(C2=NCCN2)cc1`, the T/C is 136 % of control under setting [3] and 145 % of control (dose: 37.5 mg/kg/injection, schedule: Q01DX009 (ip), vehicle: saline). The survivor count runs as follows: under setting [7], 0 of 6; (dose: 200.0 mg/kg/injection, schedule: Q04DX003 (ip), vehicle: saline) 0 of 6; under setting [5], 0 of 6.

For the molecule `CCOC(=O)CN1C=C(C(=O)c2cc3ccccc3[nH]2)CCC1`, the survivor count reads like this: under setting [3], 6 of 6; under setting [6], 6 of 6; (dose: 100.0 mg/kg/injection, schedule: Q01DX009 (ip), vehicle: saline) 6 of 6.

Take `c1ccc(OP2OCCO2)cc1`: the survivor count under setting [4] was 5 of 6.

For `O=C1CC2c3ccccc3C1C1C(=O)OC(=O)C21` (stereo not drawn), the survivor count (dose: 400.0 mg/kg/injection, schedule: Q04DX003 (ip), vehicle: Klucel (hydroxypropylcellulose) (HPC)) was 1 of 6.

`COc1cccc(C(=O)C=C(C(F)(F)F)C(F)(F)F)c1`: the survivor count (dose: 37.5 mg/kg/injection, schedule: Q01DX009 (ip), vehicle: saline with Tween-80) is listed as 0 of 6.

In the case of `ClC(Cl)(Cl)C(N1CCN(c2ccccc2)CC1)N1CCN(c2ccccc2)CC1`, the T/C under setting [11] was 137 % of control.

Turning to `O=C(/C=C/c1ccc2c(c1)OCO2)c1ccc([N+](=O)[O-])cc1`, the survivor count is, setting by setting: under setting [12], 3 of 6; (dose: 200.0 mg/kg/injection, schedule: Q04DX003 (ip), vehicle: Klucel (hydroxypropylcellulose) (HPC)) 0 of 6.

As for `CCN(CC)CCCC(C)Nc1c2ccc(C)cc2nc2ccc(OC)cc12` (stereo not drawn), the survivor count under setting [13] was 4 of 6 and the survivor count (dose: 200.0 mg/kg/injection, schedule: Q01DX009 (ip), vehicle: saline with Tween-80) is listed as 2 of 6.

As for `CC(=O)N(C)c1cccc(C(=O)O)c1`, the survivor count reads like this: (dose: 50.0 mg/kg/injection, schedule: Q01DX001 (ip), vehicle: Klucel (hydroxypropylcellulose) (HPC)) 6 of 6; (dose: 100.0 mg/kg/injection, schedule: Q01DX001 (ip), vehicle: Klucel (hydroxypropylcellulose) (HPC)) 6 of 6; (dose: 200.0 mg/kg/injection, schedule: Q01DX001 (ip), vehicle: Klucel (hydroxypropylcellulose) (HPC)) 6 of 6.

`CN(C)c1ccccc1.[C-]#[O+].[C-]#[O+].[C-]#[O+].[Cr]`: the survivor count reads like this: under setting [9], 5 of 6; under setting [10], 1 of 6.

As for `CN(C)c1ccc(C=O)c(Oc2ccccc2)c1`, under setting [12], the survivor count was 5 of 6.

`C[N+](C)(CC(=O)Nc1ccc(Cl)c(C(F)(F)F)c1)CC(=O)c1ccc(Cl)c(Cl)c1`: the survivor count (dose: 100.0 mg/kg/injection, schedule: Q04DX003 (ip), vehicle: saline sonified) is on record as 5 of 5.

Turning to `Br/C(C=Nc1ccccc1)=C\Nc1ccccc1`, under setting [11], the survivor count was 4 of 6.

Turning to `CCOC(=O)CCCN(c1[nH]c(C)c(C)c1C#N)S(=O)(=O)c1ccc(C)cc1`, the survivor count is on record as 6 of 6 (dose: 50.0 mg/kg/injection, schedule: Q04DX003 (ip), vehicle: saline with Tween-80) and 6 of 6 under setting [8].

In the case of `NC(CSC(c1ccccc1)(c1ccccc1)c1ccccc1)C(=O)O` (stereo not drawn), the T/C was 127 % of control (dose: 4.6 mg/kg/injection, schedule: Q01DX009 (ip), vehicle: Klucel (hydroxypropylcellulose) (HPC)); 145 % of control (dose: 7.0 mg/kg/injection, schedule: Q01DX009 (ip), vehicle: Klucel (hydroxypropylcellulose) (HPC)); 131 % of control (dose: 11.0 mg/kg/injection, schedule: Q04DX003 (ip), vehicle: Klucel (hydroxypropylcellulose) (HPC)); 127 % of control (dose: 16.0 mg/kg/injection, schedule: Q04DX003 (ip), vehicle: Klucel (hydroxypropylcellulose) (HPC)). Besides, the survivor count is listed as 8 of 8 (dose: 66.7 mg/kg/injection, schedule: Q01DX009 (ip), vehicle: other); 6 of 6 (dose: 100.0 mg/kg/injection, schedule: Q01DX009 (ip), vehicle: Klucel (hydroxypropylcellulose) (HPC)); 3 of 6 (dose: 150.0 mg/kg/injection, schedule: Q04DX003 (ip), vehicle: saline).

On to `COc1ccc2c(c1OC(C)=O)-c1cc(OC(C)=O)cc3c1C(C2)N(C(=O)CBr)CC3` (stereo not drawn), for which, for the setting “dose: 25.0 mg/kg/injection, schedule: Q01DX009 (ip), vehicle: saline with Tween-80”, the T/C is 126 % of control. Further, the survivor count under setting [13] is listed as 3 of 6.
